Screen size: about 300,000 compounds; about 2,300 (0.77%) were called active. The shares of active, inactive and inconclusive entries below differ from those in the screen.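 The calls were made as follows: active = more than half of replicate wells show activity change below -50%, luminescence cut by over half; inconclusive = some wells, but at most half, below -50%; inactive = no replicate well below -50%.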
Assay: HSF1 inhibitors in luciferase reporter cells, primary screen, cell-based, NIH3T3, luminescence (AID 2098);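 also: luciferase reports HSF-1 transcriptional activity via heat shock element; 0% = median of DMSO wells and -100% = zero luminescence signal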
Conditions: NIH3T3-HGL HSE-luciferase, MG132-induced, luminescence 8 h; stronger effect = lower value; screened at 7.5 µM (by protocol)

Row | SMILES | activity change, negative = inhibition
1 | O=C(C1COc2ccccc2O1)N1CCc2ccccc21 (stereo unspecified) | inactive: 7.17%
2 | CCc1c(C)nc2ccc(Br)cc2c1SCCC#N | inconclusive: -49.4%
3 | Cc1ccc(S(=O)(=O)N(C)CC(=O)N2CCc3ccccc32)cc1 | inconclusive: -34.3%
4 | COc1ccc(CNC(=O)COC(=O)c2ccccc2OCC(=O)Nc2ccc(SC(F)F)cc2)cc1 | inactive: -13%
5 | CN(C(=O)c1ccc2c(=O)n3c(nc2c1)CCCCC3)c1ccccc1Cl | inconclusive: -38.1%
6 | CC(C)c1ccc(OCCCN2CCCC2)cc1 | inconclusive: -50.3%
7 | CCN(C1CCS(=O)(=O)C1)S(=O)(=O)c1cccs1 (stereo unspecified) | inconclusive: -51.5%
8 | COC(=O)c1ccc(N/C(C)=C/C(=O)c2ccc(C)o2)cc1 | inactive: -27.7%
9 | Cc1ccc(-n2c(=S)[nH]c3nc4c(cc3c2=O)COC(C)(C)C4)cc1 | inconclusive: -49.8%
10 | Cc1cc(C)c2c(N)c(C(=O)Nc3ccc(C)c(C)c3)sc2n1 | inactive: 17.9%
11 | COC(=O)c1cc(COc2ccc3c4c(c(=O)oc3c2)CCC4)c(C)o1 | inactive: -2.4%
12 | COc1cccc(CN2CCC(n3nccc3NC(=O)CCCc3ccccc3)CC2)c1O | inconclusive: -48.8%
13 | Cc1ccc(CN2CC(C(=O)Nc3ccc(C)cn3)CC2=O)cc1 (stereo unspecified) | inconclusive: -50.9%
14 | COc1ccc(C(C(=O)NC2CCCCC2)N(C(=O)CCl)c2ccc(OC)cc2)cc1 (stereo unspecified) | inactive: -39.4%
15 | COC(=O)C1=C(C)N(CCCC(=O)O)C(=O)NC1c1ccc(C#N)cc1 (stereo unspecified) | active: -66.4%
16 | O=C1c2cccc3cccc(c23)N1Cc1cccc(F)c1 | inactive: 11.9%
17 | COc1cccc(C=Nc2ccc3c(c2)OCCO3)c1O | inconclusive: -47.8%
18 | CC1=C(C#N)c2nc(N)c(C#N)c(C)c2/C1=C\c1ccc(OCC(=O)O)c(Cl)c1 | inconclusive: -44.2%
19 | Cn1c(=O)cc(SCC(=O)N2CCN(C(=O)c3ccco3)CC2)c2ccccc21 | inconclusive: -65.8%
20 | COc1ccc(-n2c(-c3cccc(OC)c3)nc(=S)c3c2CCCC3)cc1 | inconclusive: -49.6%
21 | CC(C)C(=O)Nc1ccc(C(=O)N2CCN(C(=O)c3ccco3)CC2)cc1 | inconclusive: -49%
22 | CCOC(=O)C(=O)NC(C)CCc1ccccc1 (stereo unspecified) | inactive: -7.96%
23 | Cc1nc2ccc(NC(=O)c3cc(Cl)ccn3)cc2s1 | inactive: 16.9%

Quoted at random: 3 entries already listed, in no set order.
Row | SMILES | activity change, negative = inhibition
11 | COC(=O)c1cc(COc2ccc3c4c(c(=O)oc3c2)CCC4)c(C)o1 | inactive: -2.4%
2 | CCc1c(C)nc2ccc(Br)cc2c1SCCC#N | inconclusive: -49.4%
3 | Cc1ccc(S(=O)(=O)N(C)CC(=O)N2CCc3ccccc32)cc1 | inconclusive: -34.3%

Carrying on:

Row | SMILES | activity change, negative = inhibition
24 | O=C1C=C(NCCc2cc(Br)c(O)c(Br)c2)C(=O)c2ncccc21 | inconclusive: 47.8%
25 | Cc1ccccc1NCC(=O)N/N=C/C(Br)=C/c1ccccc1 | inconclusive: -42.7%
26 | CCCCC(=O)NC(c1ccccc1Cl)c1ccc2cccnc2c1O (stereo unspecified) | inconclusive: -44.3%
27 | Cc1cc(C(=O)CN2C(=O)c3ccccc3S2(=O)=O)c(C)n1CC1CCCO1 (stereo unspecified) | inconclusive: -49.3%
28 | Cc1ccccc1Cn1ccc(NC(=O)c2cnn3c(C(F)(F)F)cc(-c4ccco4)nc23)n1 | inconclusive: -49.9%
29 | O=C(O)c1ccc2nc(-c3ccccc3)c(-c3ccccc3)nc2c1 | inconclusive: -48.2%
30 | C/C(N)=C(/C#N)C(=O)CSc1nnc(-c2ccc(OC(F)F)cc2)o1 | inactive: 46.5%
31 | CCOc1ccc(CNS(=O)(=O)c2c(C)nc3scc(C)n3c2=O)cc1OC | inconclusive: -48.3%
32 | Cc1ccnc(NC(=O)CNC(=O)c2cccs2)c1 | inactive: 0.456%
33 | Cc1cc(C)n(C(=O)c2ccncc2)n1 | inconclusive: -48.8%
34 | O=C(O)c1cccc(N/N=C/c2ccc(OC(F)(F)F)cc2)c1 | active: -56%
35 | N#Cc1c(N)n(-c2ccccc2N)c2nc3ccccc3nc12 | inconclusive: -52.6%
36 | CC(C)CN(CC(C)C)C(=S)NC1CCCCC1 | inconclusive: -49.4%
37 | CCN(CC)c1ccc(NC(=O)c2cccnc2)cc1 | inactive: 17.2%
38 | Nc1ncnc(N2CCc3ccccc32)c1[N+](=O)[O-] | inconclusive: -49.2%
39 | CC1(C)NC(=O)N(CC(O)CN(c2ccccc2)S(=O)(=O)c2ccc([N+](=O)[O-])cc2)C1=O (stereo unspecified) | inconclusive: -49.1%
40 | CCOC(=O)c1c(NC(=O)Cc2ccccc2)sc2c1CCN(CC)C2 | inactive: 1.02%
41 | CC(C)CN(C(=O)CCCSc1nc2ccccc2[nH]1)c1c(N)n(Cc2ccccc2)c(=O)[nH]c1=O | inconclusive: -51%
42 | CCCC(C)c1nnc(NC(=O)COc2ccc3c(c2)OCO3)s1 (stereo unspecified) | inactive: 8.94%
43 | CCOc1cc(/C=N/Nc2nnc(C)n2N)ccc1OC(C)=O | inconclusive: -36.7%
44 | CC(C)(C)C(=O)Cn1ncc(Br)c(Br)c1=O | inconclusive: -34.4%
45 | CCn1c(C)cc(/C=C2/SC(=S)N(CC(=O)O)C2=O)c1C | inconclusive: -35.1%
46 | O=C(O)c1cc2cc(F)ccc2[nH]1 | active: -64.3%

Row | SMILES | activity change, negative = inhibition
47 | COc1cc(N2CCCC2)ccc1[N+](=O)[O-] | inconclusive: -32.2%
48 | COCCn1c(C)cc(/C=C2/NC(=O)N(c3cccc(Cl)c3)C2=O)c1C | inconclusive: -56.1%
49 | O=C(O)c1cccc(NC(=S)N/N=C/c2cccc(O)c2)c1 | inconclusive: -48.9%
50 | OC1CCN(Cc2cccc(Oc3ccccc3)c2)CC1 | active: -51.3%
51 | O=[N+]([O-])c1ccc(N2CCN(Cc3ccc4c(c3)OCO4)CC2)nc1 | inconclusive: -50.1%
52 | O=C(O)c1ccc(N/N=C/c2ccc(OC(=O)c3cccc(Cl)c3)cc2)cc1 | inconclusive: -48.8%
53 | Cc1ccc(C(=O)O/N=C(\N)c2ccccn2)c(C)c1 | active: -89.1%
54 | CCC(=O)C1CCCN(C(=O)c2ccc3nc(-c4cccc(OC)c4)oc3c2)C1 (stereo unspecified) | inconclusive: -49.7%
55 | Cc1[nH]c(=O)c(C#N)cc1-c1csc(-c2ccccc2)n1 | inconclusive: -52.4%
56 | COc1ccc(CNC(=O)CCCCCNC(=O)N2CCn3c2nc2ccccc23)cc1 | inconclusive: -60.5%
57 | Cc1ccc(N(CC(=O)NC2CCCCC2)C(=O)CNC(=O)c2ccco2)c(C)c1 | inconclusive: -50.4%
58 | Cc1nnc2n1N=CC=C(C(C)(C)C)S2 | inconclusive: -34.8%
59 | CN(C)c1ccc(/C=N\Nc2nc(-c3ccccc3)cc(=O)[nH]2)cc1 | active: -73%
60 | CCOc1ccc(-c2cc3nc(C4CCN(C(=O)OC(C)(C)C)CC4)c(C(=O)O)cn3n2)cc1 | inactive: -0.728%
61 | N/C(=N\OC(=O)c1ccc(Cl)cc1Cl)c1ccccc1 | inconclusive: -51.1%
62 | O=C(C1CC(=O)N(c2ccccc2)C1)N1CCCCCC1 (stereo unspecified) | inactive: 7.21%
63 | CCCN(CCC)C1CC(=O)N(Cc2ccccc2)C1=O (stereo unspecified) | inconclusive: -40.6%
64 | O=S(=O)(Nc1ccc2c(c1)OCCO2)c1cccs1 | active: -63.2%
65 | O=C(c1ccc(C#CC2(O)CCCCC2)cc1)N1CCN(C(c2ccccc2)c2ccccc2)CC1 | inconclusive: -49.2%
66 | O=C(NNC(=O)c1cccs1)c1ccncc1 | inactive: -6.04%
67 | C[C@H](NC(=O)Cc1ccccc1)C(=O)N1CCC2(CC1)NCCc1[nH]cnc12 | inactive: -0.0246%
68 | CCOC(=O)CN(C)Cc1cn[nH]c1-c1ccc2cc(OC)ccc2c1 | inactive: 15.6%
69 | CCCCNCCOCCOc1ccccc1-c1ccccc1 | inconclusive: -50%

Row | SMILES | activity change, negative = inhibition
70 | CC(C)(C)c1ccc(OC(=O)c2cccnc2)cc1 | inconclusive: -45.1%
71 | c1ccc2nc3c(nc2c1)OCC1CCCCN31 (stereo unspecified) | inactive: 8.7%
72 | COCCCN(C(=O)CCOc1ccc(C(C)(C)C)cc1)c1c(N)n(Cc2ccccc2)c(=O)[nH]c1=O | inconclusive: -50%
73 | CCOC(=O)c1ccc(N/C=C/C(=O)c2ccc(OC)cc2)cc1 | inconclusive: -48.9%
74 | NS(=O)(=O)c1ccc(CCNC(=O)Cc2ccc(S(=O)(=O)N3CCOCC3)s2)cc1 | inactive: -5.74%
75 | COc1ccc(N(C(=O)CCl)C(C(=O)NC2CCCCC2)c2cccnc2)cc1 (stereo unspecified) | inconclusive: -58.6%
76 | COc1ccc(-n2c(COc3cccc(C)c3)n[nH]c2=S)cc1 | inconclusive: -49.6%
77 | CC(C)(C)c1ccc(C(=O)NCc2ccccc2)cc1 | inactive: 12.1%
78 | Cc1ccc(S(=O)(=O)NNc2nc3ccccc3nc2C(F)(F)F)cc1 | inactive: -12.4%
79 | Nc1nc(SCc2ccccc2Cl)ns1 | inconclusive: -17%
80 | CC(/C=C/c1ccccc1)=N\NC(=O)c1ccc2c(c1)OCCO2 | inconclusive: -50.1%
81 | CC1(OC(=O)CCc2ccccc2)C(=O)C=C2C=C(c3ccc(C#N)cc3)N(CCc3ccccn3)C=C2C1=O (stereo unspecified) | active: -80.1%
82 | CN(C)c1ccc(/C=N/Nc2ccc(-n3ccnc3)nn2)cc1 | inconclusive: -46.1%
83 | Cc1ccc2nc(/C(C#N)=C\c3ccc([N+](=O)[O-])o3)[nH]c2c1 | inconclusive: -42.9%
84 | CC1C/C(=N/Nc2nc3ccccc3[nH]2)CC(C)(C)C1 (stereo unspecified) | inconclusive: -50.7%
85 | O=C(N/C(=C\c1ccc(Br)cc1)C(=O)N1CCOCC1)c1ccc(Br)o1 | inactive: -4.25%
86 | O=C(Nc1ccc(Cl)c([N+](=O)[O-])c1)Nc1nc2ccccc2s1 | inactive: 15.1%
87 | COc1cccc(NC(=O)CSc2ncnc3c2cnn3Cc2ccccc2)c1 | inactive: 1.86%
88 | N=C1C(c2nc3ccccc3[nH]2)=C(O)CN1c1ccc(CC(=O)O)cc1 | active: -53.9%
89 | Cc1ccccc1S(=O)(=O)Cc1ccc(C(=O)NCc2cccs2)o1 | inactive: -2.2%
90 | Cn1c(SCC(=O)Nc2ncc(C(F)(F)F)cc2Cl)nnc1-c1ccc(Cl)cc1 | inconclusive: -49%
91 | Cc1ccc2cc(CN(C(=O)c3cccs3)c3ccccc3)c(=O)[nH]c2c1 | inactive: 5.89%

Source: PubChem BioAssay AID2098 (Broad Institute, 2009)
